These are yes or no findings as the source states them, for the method shown. Binding seen in cells or lysates may run through a third protein. Some results given as binding are weak or reduced against the parent protein; the word gives no strength.
Target: GST-tagged Akt1 protein (UniProt P31749)
Assay: pull-down; GST-vector or GST-Akt purified from HEK293T cells incubated with total lysates of MCF7 cells in 10% serum; Western blot of eluates; only the target purified

Amino acid sequences for entries named in this document (tags omitted).
UniProt P31749: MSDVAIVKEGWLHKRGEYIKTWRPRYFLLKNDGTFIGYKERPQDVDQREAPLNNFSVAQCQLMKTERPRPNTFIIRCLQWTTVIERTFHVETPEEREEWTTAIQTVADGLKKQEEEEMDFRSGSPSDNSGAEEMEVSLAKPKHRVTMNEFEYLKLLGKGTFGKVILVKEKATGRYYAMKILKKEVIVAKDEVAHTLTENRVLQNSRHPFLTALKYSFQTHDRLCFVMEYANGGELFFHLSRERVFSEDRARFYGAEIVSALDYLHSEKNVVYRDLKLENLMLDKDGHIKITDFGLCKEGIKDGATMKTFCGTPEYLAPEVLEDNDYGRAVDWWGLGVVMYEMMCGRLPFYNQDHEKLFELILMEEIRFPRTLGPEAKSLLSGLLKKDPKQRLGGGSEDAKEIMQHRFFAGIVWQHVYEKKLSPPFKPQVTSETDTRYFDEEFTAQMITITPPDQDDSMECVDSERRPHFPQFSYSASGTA
UniProt Q8IZL8: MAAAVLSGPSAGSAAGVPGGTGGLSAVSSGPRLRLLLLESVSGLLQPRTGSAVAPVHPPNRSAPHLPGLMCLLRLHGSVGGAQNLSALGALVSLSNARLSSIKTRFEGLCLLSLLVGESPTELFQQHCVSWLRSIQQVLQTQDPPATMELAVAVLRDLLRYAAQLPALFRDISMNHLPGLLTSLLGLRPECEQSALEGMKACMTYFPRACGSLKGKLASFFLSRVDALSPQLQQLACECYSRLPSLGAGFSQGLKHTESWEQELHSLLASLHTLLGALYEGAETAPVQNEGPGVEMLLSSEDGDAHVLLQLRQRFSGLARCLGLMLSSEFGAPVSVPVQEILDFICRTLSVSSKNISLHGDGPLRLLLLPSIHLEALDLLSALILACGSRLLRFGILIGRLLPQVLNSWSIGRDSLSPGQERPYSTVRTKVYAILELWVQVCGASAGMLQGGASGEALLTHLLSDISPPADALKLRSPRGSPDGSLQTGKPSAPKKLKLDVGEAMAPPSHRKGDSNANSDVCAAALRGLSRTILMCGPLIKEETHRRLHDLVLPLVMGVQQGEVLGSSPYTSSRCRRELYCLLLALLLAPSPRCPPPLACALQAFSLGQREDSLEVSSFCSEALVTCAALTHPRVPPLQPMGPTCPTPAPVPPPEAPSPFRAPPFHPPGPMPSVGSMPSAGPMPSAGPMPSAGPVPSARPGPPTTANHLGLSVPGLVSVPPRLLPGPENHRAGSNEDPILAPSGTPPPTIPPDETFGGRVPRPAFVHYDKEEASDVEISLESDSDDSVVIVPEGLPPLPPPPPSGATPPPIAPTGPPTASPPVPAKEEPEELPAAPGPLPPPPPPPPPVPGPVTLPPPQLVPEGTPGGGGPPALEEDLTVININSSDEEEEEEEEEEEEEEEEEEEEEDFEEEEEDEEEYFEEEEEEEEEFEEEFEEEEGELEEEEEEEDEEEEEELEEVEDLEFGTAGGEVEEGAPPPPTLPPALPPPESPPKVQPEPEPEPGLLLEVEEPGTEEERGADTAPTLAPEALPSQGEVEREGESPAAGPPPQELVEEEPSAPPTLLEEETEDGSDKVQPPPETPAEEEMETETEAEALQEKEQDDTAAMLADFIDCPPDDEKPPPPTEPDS

binding: binds
Substance: Proline-, glutamic acid-, and leucine-rich protein 1 (PELP1), endogenous (from UniProt Q8IZL8 1-1130)
